Assay results published in the supplement of paper PMC10735217.
Counter-ions that a name gives are not always drawn. Some of the results follow. Single values are uncertain here, since repeats match poorly.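 The human kidney-derived cells carry a stably integrated construct of eight TEAD-binding elements driving luciferase, read by luminescence in a drug-repurposing library screen. A compound counts as a hit when its signal is more than five robust Z scores above the plate mean.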

Test system: HEK293A TEAD-LUC reporter
Experiment: TEAD-luciferase reporter activity (YAP activation), robust Z score vs plate; higher = stronger YAP/TEAD activation
Settings: 24 h

SMILES	TEAD-luciferase reporter activity (compound concentration: 200 nM)	TEAD-luciferase reporter activity (compound concentration: 2 uM)	TEAD-luciferase reporter activity (compound concentration: 10 uM)
Fc1ccc(C(c2ccccc2)(c2ccccc2F)n2ccnc2)cc1 (stereo not given) [flutrimazole]	inactive: -1.49	inactive: -0.73	inactive: 4.32
C[C@@H]1Cc2c([nH]c3ccccc23)[C@@H](c2c(F)cc(/C=C/C(=O)O)cc2F)N1CC(C)(C)F	inactive: 1.62	inactive: -0.939	active: 6.45
CCCc1c(OCCCOc2cc(O)c(-c3ccc(F)cc3)cc2CC)cccc1Oc1ccccc1C(=O)O	inactive: -0.489	inactive: -2.05	inactive: -0.55
C/C=C(/C)C(=O)O[C@H]1C(C)=C[C@]23C(=O)[C@@H](C=C(CO)[C@@H](O)[C@]12O)[C@H]1[C@@H](C[C@H]3C)C1(C)C [Ingenol mebutate]	active: 14.5	active: 24.9	active: 32.9
N=C(N)NCCCCCCCC(=O)N[C@@H](CC(=O)O)C(=O)N[C@@H](Cc1ccccc1)C(=O)O	inactive: 1.35	inactive: -1.57	inactive: -0.505
C/C=C/C1=C(C(=O)O)N2C(=O)[C@@H](NC(=O)[C@H](N)c3ccc(O)cc3)[C@H]2SC1 [cefprozil]	–	inactive: 0.409	–
C/C=C/C1=C(C(=O)O)N2C(=O)[C@@H](NC(=O)[C@H](N)c3ccc(O)cc3)[C@H]2SC1 [Cefprozil]	inactive: -1.79	–	inactive: -0.577
Cc1cc(C#N)cc(C)c1Oc1nc(Nc2ccc(C#N)cc2)nc2[nH]ccc12	inactive: -0.716	inactive: -1.79	inactive: 4.53
CC(Oc1ccccc1)C(=O)NC1C(=O)N2C1SC(C)(C)C2C(=O)O (stereo not given) [Phenethicillin potassium]	inactive: 3.94	inactive: -1.09	inactive: -0.365
FC(F)(F)C(C(F)(F)F)(C(F)(F)F)C1(F)C(F)(F)C(F)(F)C(F)(F)C(F)(F)C1(F)F [Oxycyte]	inactive: -1.4	inactive: -0.0639	inactive: 0.928
O=S(=O)(c1nc(-c2ccccc2)c(-c2cccc(F)c2)[nH]1)C(F)(F)C(F)F	inactive: -1.3	inactive: -2.06	inactive: 0.236
O=C1CCCN1c1ccc(Oc2ccc3c(c2)CCN(C2CCC2)CC3)nc1	inactive: -0.54	inactive: -0.822	inactive: 1.36
CCc1nc2c(C)cc(-c3cn4c(n3)CCCC4)cc2n1Cc1ccc(-c2ccccc2C(=O)O)cc1	inactive: -1.88	inactive: -1.54	inactive: -0.606
O=C(NC1CCCN(c2nc3ncccc3o2)C1)c1ccc(F)cc1 (stereo not given)	inactive: -1.65	–	inactive: -0.0692
CC[C@H](C)[C@H](NC(=O)[C@H](CCCNC(=N)N)NC(=O)[C@H](CC(C)C)NC(=O)[C@H](CC(N)=O)NC(=O)[C@H](CCC(=O)O)NC(=O)[C@@H](N)CCCNC(=N)N)C(=O)N[C@@H](C)C(=O)N[C@@H](CC(C)C)C(=O)N[C@@H](CCCNC(=N)N)C(=O)N[C@@H](Cc1ccc(O)cc1)C(=O)O	inactive: -1.42	–	inactive: 0.615
C=CCN1C=CC(=O)C(=O)C1C (stereo not given)	inactive: 3.32	inactive: -1.39	inactive: 0.138
Cc1cc2nc3c(=O)[nH]c(=O)nc-3n(CC(O)C(O)C(O)COP(=O)(O)O)c2cc1C (stereo not given)	inactive: -0.315	–	inactive: -0.628
O=C(NC1CCN(Cc2ccncc2)CC1)c1cc2cc(OC3CCN(c4ccc(C(F)(F)F)cc4)CC3)ccc2o1	inactive: 0.227	inactive: -0.685	inactive: -2.02
COc1cc2c(=O)c(-c3ccc(O)cc3)coc2cc1O [Glycitein]	active: 5.86	inactive: -0.588	inactive: -0.353
O=S(=O)(Nc1nnc2cc(OC[C@]34C[C@H]5C[C@H](C[C@H](C5)C3)C4)c(C3CC3)cn12)C1CC1	inactive: -1.32	inactive: -1.06	inactive: -1.21
CC(=O)Oc1cc(C(C)C)c(OCCN(C)C)cc1C [Moxisylyte hydrochloride]	inactive: -1.98	–	inactive: 0.154
CC(=O)Oc1cc(C(C)C)c(OCCN(C)C)cc1C [peptide 6]	–	inactive: -0.115	–
Cc1c(OC(C)C(=O)O)cccc1C(=O)c1ccc(Cl)cc1 (stereo not given)	inactive: -0.37	inactive: 0.933	inactive: -0.311
COC(=O)c1cc(OC)c2c(c1-c1c(CO)cc(OC)c3c1OCO3)OCO2	inactive: -0.638	inactive: -0.309	inactive: 0.976
CCCOc1ccc([N+](=O)[O-])cc1NC(C)=O	inactive: -1.88	inactive: 0.245	inactive: 1.76
NCC1(CN)CCCCC1 [1,1-Cyclohexanedimethanamine]	inactive: 0.296	inactive: -0.205	inactive: -0.921

SMILES	TEAD-luciferase reporter activity (compound concentration: 200 nM)	TEAD-luciferase reporter activity (compound concentration: 2 uM)	TEAD-luciferase reporter activity (compound concentration: 10 uM)
O=c1cnn([C@@H]2O[C@H](CO)[C@@H](O)[C@H]2O)c(=O)[nH]1	inactive: -1.63	inactive: -1.58	inactive: -0.264
CCCCCCCCCCCCCCCCCCCCCCCCCC(=O)N[C@@H](CO[C@H]1O[C@H](CO)[C@H](O)[C@H](O)[C@H]1O)[C@H](O)[C@H](O)CCCCCCCCCCCCCC	inactive: 3.87	inactive: 0.461	inactive: 2.51
CC(C)C[C@H](O)[C@H](O)[C@H](CC1CCCCC1)NC(=O)C(CC(=O)N(CC(=O)N(C)CCc1ccccn1)CC1CCCCC1)Cc1csc(N)n1 (stereo not given in full)	inactive: 0.116	inactive: -0.381	inactive: 1.7
NC(=O)N1CCC(CC(=O)N2CCC([C@H]3c4ncc(Br)cc4CCc4cc(Cl)cc(Br)c43)CC2)CC1 [lonafarnib]	inactive: -1.06	inactive: -0.236	inactive: 1.07
CCCCN1C[C@H](O)[C@@H](O)[C@H](O)[C@H]1CO [Miglustat]	inactive: -1.94	–	inactive: -0.674
O=C1c2cccc(-c3ccccc3)c2C(=O)C1c1ccc(Cl)cc1 (stereo not given)	inactive: 0.469	inactive: 1.93	inactive: 3.86
CNS(=O)(=O)c1cc(OC)c(OC)c(C(=O)NC[C@@H]2CCCCN2C(=O)OC(C)(C)C)c1	inactive: -0.259	inactive: -0.328	inactive: -0.296
CCOC(=O)C1(Cc2cscn2)CCCN(C(=O)[C@@H](Cc2c[nH]c3ccccc23)NC(=O)C(C)(C)N)C1 (stereo not given in full)	inactive: -1.12	inactive: 0.0709	inactive: -0.142
CN/C(=C\[N+](=O)[O-])NCCSCc1ccc(CNC2C3CC4C(C3)C42)o1 (stereo not given)	inactive: 0.134	inactive: -0.796	inactive: 0.504
C#C[C@]1(OC(C)=O)CC[C@H]2[C@@H]3CCC4=C[C@@H](OC(C)=O)CC[C@@H]4[C@H]3CC[C@@]21C	inactive: -1.63	inactive: -1.31	inactive: -0.795
CC(CC(c1ccccc1)c1ccccc1)NC(C)(C)C (stereo not given) [terodiline]	inactive: 4.57	inactive: -0.734	inactive: 2.16
Cc1cc(C)cc(OCC2CNC(=O)O2)c1 (stereo not given) [metaxalone]	inactive: -1.02	inactive: -1.92	inactive: -0.931
COc1ccc(S(=O)(=O)N2C(=O)[C@@](c3ccccc3OC)(N3C[C@H](O)C[C@H]3C(=O)N(C)C)c3cc(Cl)ccc32)c(OC)c1	inactive: -0.238	inactive: -0.691	inactive: 0.73
CC(C)CC(=O)Nc1n[nH]c2c1CN(C(=O)C1CCN(C)CC1)C2(C)C	inactive: -2.01	inactive: -2.83	inactive: -2.88
CN(CCC=C1c2ccccc2CCc2ccccc21)C(=O)CCCN [Nortriptyline-GABA]	inactive: 2.56	inactive: -1.28	inactive: 0.228
CC(=O)N1Cc2ccccc2CC2(CCCN2CC2CCCC2)C1 (stereo not given)	inactive: -1.52	–	inactive: -0.0219
C[C@H](N)c1ccc([C@H](O)CNC(C)(C)C)cc1	inactive: 0.849	inactive: 0.807	inactive: -1.6
CC(=O)N[C@@H](CC(C)C)C(=O)N1CCC[C@H]1C(=O)N[C@@H](Cc1ccccc1)C(=O)N[C@@H](Cc1ccccc1)C(=O)N[C@@H](CC(=O)O)C(N)=O	inactive: -0.877	inactive: -0.0497	inactive: -0.24
CC1=C(C(=O)O)N2C(=O)[C@@H](NC(=O)[C@H](N)c3ccccc3)C2SC1 (stereo not given in full) [cefalexin HCl monohydrate]	inactive: -1.37	inactive: 1.56	inactive: -0.734
CC(C)(O)Cn1cnc2c(N)nc3ccccc3c21	inactive: -1.47	inactive: 0.593	inactive: 0.191
Clc1ccccc1CN1CCc2sccc2C1 [Ticlopidine Hydrochloride]	inactive: -1.61	–	inactive: -1.88
Clc1ccccc1CN1CCc2sccc2C1 [ticlopidine]	–	inactive: -0.196	–
CC(C)CCC[C@@H](C)[C@H]1CC[C@H]2[C@@H]3CC/C(=N\O)[C@](C)(CCCO)[C@H]3CC[C@]12C	inactive: 2.48	inactive: -2.04	inactive: -0.34
O=C1CCC(NC(=O)Cc2ccccc2)C(=O)N1 (stereo not given) [antineoplaston A10]	inactive: 1.07	inactive: -1.3	inactive: -0.283
COc1cccc(-c2ccc(CN3CCCC3C(=O)NCc3ccc4c(c3)OCO4)cc2)c1 (stereo not given)	inactive: 3.26	–	inactive: 1.58
O=C1c2ccccc2CN1C1CCN(Cc2ccc(F)cc2)CC1	inactive: -0.177	–	inactive: 2.01

Full records as entered above:
Cc1cc(C)cc(OCC2CNC(=O)O2)c1 (stereo not given) [metaxalone] is entered as TEAD-luciferase reporter activity (compound concentration: 200 nM): inactive: -1.02; TEAD-luciferase reporter activity (compound concentration: 2 uM): inactive: -1.92; TEAD-luciferase reporter activity (compound concentration: 10 uM): inactive: -0.931
C/C=C/C1=C(C(=O)O)N2C(=O)[C@@H](NC(=O)[C@H](N)c3ccc(O)cc3)[C@H]2SC1 [Cefprozil] is entered as TEAD-luciferase reporter activity (compound concentration: 200 nM): inactive: -1.79; TEAD-luciferase reporter activity (compound concentration: 10 uM): inactive: -0.577
C[C@H](N)c1ccc([C@H](O)CNC(C)(C)C)cc1 is entered as TEAD-luciferase reporter activity (compound concentration: 200 nM): inactive: 0.849; TEAD-luciferase reporter activity (compound concentration: 2 uM): inactive: 0.807; TEAD-luciferase reporter activity (compound concentration: 10 uM): inactive: -1.6
